Measured values taken from patent US20250262210A1 (TRUSTEES OF COLUMBIA UNIVERSITY IN THE CITY OF NEW YORK, published 2025).
Substitutions are numbered along the chain they refer to. Each block holds one binder with its values, some of them ahead of it.

Columns and labels:
[1] = target: T1, LZTR1 R810W-FLAG (human, UniProt Q8N653 1-840); assay: IP/MS, LZTR1 R810W-FLAG, U87
T1 construct: Stably expressed in U87 cells by lentivirus; also called LZTR1-FLAG-R810W; LZTR1 RW; not shown: FLAG tag
T1 sequence (looked up): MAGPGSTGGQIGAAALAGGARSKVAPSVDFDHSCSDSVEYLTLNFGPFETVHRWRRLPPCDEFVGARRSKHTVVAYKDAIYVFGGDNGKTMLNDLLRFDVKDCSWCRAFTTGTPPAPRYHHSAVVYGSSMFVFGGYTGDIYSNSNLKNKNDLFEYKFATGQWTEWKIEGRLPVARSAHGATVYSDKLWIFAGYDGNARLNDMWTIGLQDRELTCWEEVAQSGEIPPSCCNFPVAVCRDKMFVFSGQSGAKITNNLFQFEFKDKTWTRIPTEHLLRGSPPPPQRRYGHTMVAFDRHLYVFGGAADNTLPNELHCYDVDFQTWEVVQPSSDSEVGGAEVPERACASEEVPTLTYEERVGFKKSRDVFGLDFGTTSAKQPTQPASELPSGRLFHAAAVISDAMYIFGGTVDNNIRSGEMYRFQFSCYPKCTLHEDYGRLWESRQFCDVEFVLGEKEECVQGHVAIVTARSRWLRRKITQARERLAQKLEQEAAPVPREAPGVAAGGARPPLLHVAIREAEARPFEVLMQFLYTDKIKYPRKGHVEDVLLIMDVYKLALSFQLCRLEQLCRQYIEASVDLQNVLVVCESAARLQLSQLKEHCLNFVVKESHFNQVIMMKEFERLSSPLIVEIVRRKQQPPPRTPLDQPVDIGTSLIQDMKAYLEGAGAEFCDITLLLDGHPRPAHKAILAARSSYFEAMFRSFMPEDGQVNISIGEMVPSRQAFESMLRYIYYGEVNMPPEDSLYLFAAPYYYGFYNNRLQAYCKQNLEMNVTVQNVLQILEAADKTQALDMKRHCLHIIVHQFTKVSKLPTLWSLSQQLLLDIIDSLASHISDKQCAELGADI
Procedure: (§1) Lysates were immunoprecipitated with FLAG affinity matrix and eluted with FLAG peptide. […] Protein gel slices were excised and in-gel digestion performed as previously described (83), with minor modifications. Gel slices were washed with 1:1 A cetonitrile and 100 mM ammonium bicarbonate for 30 min then dehydrated with 100% acetonitrile for 10 min until shrunk. The excess acetonitrile was then removed and the slices dried in speed-vacuum at room temperature for 10 min. Gel slices were reduced with 5 mM DTT for 30 min at 56° C. in an air thermostat, cooled down to room temperature, and alkylated with 11 mM IAA for 30 min with no light. Gel slices were then washed with 100 mM of ammonium bicarbonate and 100% acetonitrile for 10 min each. Excess acetonitrile was removed and dried in a speed-vacuum for 10 min at room temperature and the gel slices were re-hydrated in a solution of 25 ng/μl trypsin in 50 mM ammonium bicarbonate for 30 min on ice and digested overnight at 37° C. in an air thermostat. Digested peptides were collected and further extracted from gel slices in extraction buffer (1:2 ratio by volume of 5% formic acid:acetonitrile) at high speed, shaking in an air thermostat. […] The following modifications were used for protein identification and quantification: oxidation of methionine (M), acetylation of the protein N-terminus, and deamination for asparagine or glutamine (NQ). […]

[2] = target: T2, LZTR1-FLAG (human, UniProt Q8N653 1-840); assay: IP/MS, LZTR1 wild type-FLAG, U87
T2 construct: Expressed in HEK 293T, HeLa or U87 cells; used as cell lysate; also called LZTR1 wild type-FLAG; LZTR1 WT; not shown: FLAG tag at the C-terminus
T2 sequence (looked up): T1 sequence (looked up) with W810R
Procedure: as §1

binding result [1]: binds
binding result [2]: binds
B1: ERGIC3 (other, human, UniProt Q9Y282 1-383, looked up)
chain: MEALGKLKQFDAYPKTLEDFRVKTCGGATVTIVSGLLMLLLFLSELQYYLTTEVHPELYVDKSRGDKLKINIDVLFPHMPCAYLSIDAMDVAGEQQLDVEHNLFKQRLDKDGIPVSSEAERHELGKVEVTVFDPDSLDPDRCESCYGAEAEDIKCCNTCEDVREAYRRRGWAFKNPDTIEQCRREGFSQKMQEQKNEGCQVYGFLEVNKVAGNFHFAPGKSFQQSHVHVHDLQSFGLDNINMTHYIQHLSFGEDYPGIVNPLDHTNVTAPQASMMFQYFVKVVPTVYMKVDGEVLRTNQFSVTRHEKVANGLLGDQGLPGVFVLYELSPMMVKLTEKHRSFTHFLTGVCAIIGGMFTVAGLIDSLIYHSARAIQKKIDLGKTT

binding result [1]: binds
binding result [2]: binds
B2: PHLDA1 (other, human, UniProt Q8WV24 1-401, looked up)
chain: MRRAPAAERLLELGFPPRCGRQEPPFPLGVTRGWGRWPIQKRREGARPVPFSERSQEDGRGPAARSSGTLWRIRTRLSLCRDPEPPPPLCLLRVSLLCALRAGGRGSRWGEDGARLLLLPPARAAGNGEAEPSGGPSYAGRMLESSGCKALKEGVLEKRSDGLLQLWKKKCCILTEEGLLLIPPKQLQHQQQQQQQQQQQQQQQPGQGPAEPSQPSGPAVASLEPPVKLKELHFSNMKTVDCVERKGKYMYFTVVMAEGKEIDFRCPQDQGWNAEITLQMVQYKNRQAILAVKSTRQKQQHLVQQQPPSQPQPQPQLQPQPQPQPQPQPQPQSQPQPQPQPKPQPQQLHPYPHPHPHPHSHPHSHPHPHPHPHPHQIPHPHPQPHSQPHGHRLLRSTSNSA
